The target in this test is streptavidin (UniProt P22629). Description: phage ELISA, streptavidin coated plate, anti-M13 HRP detection. For orientation: In an ELISA, binding on a coated surface is turned into a signal by an enzyme label.

These are yes or no findings as the source states them, for the method shown. Some entries that bind do so weakly or less than the wild type. Where a sequence is shown, tags or fusion partners need not be part of it.

As to AGQTLLAHPQ (peptide, not shown: large carriers), the binding entry is given as “binds”.

The values are drawn from patent US20070178448A1.
